Some of the results follow. Shown are side measurements of this screen, not its main read-out; they come without a call. The list favours compounds with an active or inconclusive main result. Words in brackets tell the shape of the fitted curve; partial curves, single points and poor fits give uncertain potencies.

As a reminder, the AC50 is the concentration giving half of the maximal activity seen.

The experiment in a line: qHTS Assay to Find Inhibitors of Chronic Active B-Cell Receptor Signaling. The following applies: ABC-DLBCL IkBa-CBG/CBR reporter, luminescence ratio (green luciferase fused to IkBa over red control in TMD8 lymphoma cells), 4 h. The procedure, abridged:
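Doxycycline induced both beetle luciferases in TMD8 lymphoma cells; IKK-driven degradation limits the IkappaBalpha-fused green signal, while red luminescence normalises for cell number and nonspecific effects. Compounds tested up to 46 uM, 4 hrs.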

Where [1] appears, read: measured here: CBR red luminescence, cell number.
Where [2] appears, read: measured here: IkBa-CBG green luminescence.

Turning to `COc1ccccc1N1CCN(C(=O)CCSCc2ccccc2F)CC1`, under setting [1], the half-maximal activity concentration (AC50) is 3.16 µM [rising, partial curve, poor fit].

Take `O=C(Nc1nccs1)c1cn(-c2ccccc2)nc1-c1ccccc1`: the AC50 under setting [1] is 0.231 µM [falling, full curve].

On to `Cc1cc(C(=O)Nc2ccc3[nH]ccc3c2)no1`, for which the AC50 under setting [1] was 11.2 µM [falling, partial curve].

In the case of `Cc1ccc(S(=O)(=O)n2ccc3c(OCCOCCNCc4ccc(F)cc4)cccc32)cc1`, the AC50 under setting [1] was 12.6 µM [falling, single point].

For `CC1=CC(=O)N(c2ccn(C)n2)C1=O`, the AC50 under setting [1] is 11.2 µM [falling, single point].

In the case of `COc1ccc(-n2nnnc2SCC(=O)c2ccc3c(c2)OCCO3)cc1`, the AC50 under setting [1] was 2.91 µM [rising, full curve, poor fit].

For `O=C1N=C(N2CCN(c3ccccc3)CC2)S/C1=C/c1ccco1`, under setting [1], the AC50 is 1.12 µM [rising, full curve, poor fit].

With `COc1ccc(/C=C/c2nnc(NC(C)=O)s2)cc1`, the AC50 under setting [1] is 11.2 µM [falling, partial curve, poor fit].

`COc1ccc2c(c1)[nH]c1c(=O)n(CCc3cnc[nH]3)cnc12`: the AC50 under setting [1] is 9.2 µM [falling, partial curve, poor fit].

With `CCOc1ccc(NC(=O)CN(C)S(=O)(=O)c2ccc3c(c2)CCC(=O)N3)cc1`, the AC50 under setting [1] is 3.98 µM [rising, full curve, poor fit].

With `CCc1ccc(-c2cc(C(=O)NN3CCN(C)CC3)c3ccccc3n2)cc1`, the AC50 under setting [1] was 13 µM [falling, partial curve].

On to `COc1ccc2nc(NC(=O)NC3CCCCC3)sc2c1`, for which the AC50 under setting [1] is 11.2 µM [falling, partial curve, poor fit].

For `O=C(Oc1ccc(NC(=O)c2cc3c(cc2Br)OCO3)cc1)c1ccccc1`, the AC50 under setting [1] was 2.24 µM [falling, full curve, poor fit].

Turning to `Cn1ncc2c(O/N=C(\N)c3ccc(C(C)(C)C)cc3)ncnc21`, the AC50 under setting [1] was 20 µM [falling, single point].

Take `Cc1cccc(CN2CCN(CCCc3ccccc3)CC2)c1`: the AC50 under setting [1] was 11.2 µM [rising, single point].

Turning to `CC(=O)c1sc(NC(=O)CCOc2ccccc2)nc1C`, the AC50 under setting [1] was 15.8 µM [falling, single point].

On to `Cc1ccc(NC2=Nc3ccccc3CC2)cc1`, for which the AC50 under setting [1] is 29.1 µM [falling, single point].

As to `Cc1nn(-c2nc3ccccc3[nH]2)c(N)c1-c1ccccc1`, the concentration at half-maximal activity (AC50) under setting [1] was 29.1 µM [falling, single point].

For `Cc1cc2n(n1)SC(Nc1ccc(F)c(Cl)c1)N2` (configuration not stated), the AC50 under setting [1] is 0.731 µM [rising, full curve, poor fit].

With `S=C(NCCC(c1ccccc1)c1ccccc1)Nc1ccc(Cl)cc1`, the AC50 by setting is: under setting [1], 11.2 µM [falling, partial curve]; under setting [2], 25.1 µM [rising, partial curve, poor fit].

As for `CCN(CC(=O)Nc1c(F)cccc1F)C(=O)/C=C/c1ccc(OCC#N)c(OC)c1`, the AC50 under setting [1] was 32.6 µM [rising, partial curve, poor fit].

For `Cc1cccc(NC(=O)CN2C(=O)NC(Cc3ccccc3)C2=O)c1` (configuration not stated), the AC50 under setting [1] was 29.1 µM [rising, single point].

On to `Cc1ccc(Cl)cc1N1CCN(C(=O)C2CCC(=O)N(C3CCCCCC3)C2)CC1` (configuration not stated), for which, under setting [1], the AC50 was 3.98 µM [falling, single point].

Turning to `CCOC(=O)c1cnc(-n2nc(C)cc2C)nc1NCCc1ccccc1`, under setting [2], the AC50 was 35.5 µM [rising, partial curve, poor fit].

On to `COCCCNC(=O)/C(C#N)=c1\s/c(=C\c2ccccc2OC(F)F)c(=O)n1CCCOC`, for which the AC50 under setting [1] was 16.4 µM [falling, single point].

With `Cc1cn(C2CC(OC(=O)C(C)C)C(CO)O2)c(=O)[nH]c1=O` (configuration not stated), under setting [1], the AC50 is 29.1 µM [rising, single point].

In the case of `Cc1ccc(S(=O)(=O)N(C)C2(C)CCS(=O)(=O)C2)cc1` (configuration not stated), the AC50 under setting [1] was 4.11 µM [falling, single point].

Consider `CCn1nc(NC(=O)c2cccs2)c2cc3ccccc3nc21`, for which the AC50 under setting [1] is 10 µM [falling, partial curve, poor fit].

Consider `COc1ccc(C(NC(=O)C2CCCCC2)c2c(O)ccc3ccccc23)cc1` (configuration not stated), for which the AC50 under setting [2] is 20.6 µM [rising, partial curve, poor fit].

For the compound `O=C(NCCC1CCCCN1S(=O)(=O)c1cccs1)C(=O)Nc1ccc(F)cc1` (configuration not stated), the AC50 under setting [1] was 4.61 µM [falling, partial curve].

For the compound `O=C1c2ccccc2C(=O)c2[nH]c(=O)[nH]c21`, the AC50 under setting [1] is 12.6 µM [falling, partial curve].

For `CC#CC#Cc1cccc(=O)o1`, under setting [1], the AC50 was 15.8 µM [falling, partial curve, poor fit].

Regarding `NC(=O)CN(N=Nc1cccc([N+](=O)[O-])c1)c1cccc([N+](=O)[O-])c1`, the AC50 under setting [1] is 20 µM [rising, partial curve, poor fit].

Turning to `CC1CN(C(=S)SCC(=O)c2ccccc2)CC(C)O1` (configuration not stated), the AC50 under setting [1] is 0.231 µM [rising, full curve, poor fit].

For the compound `N#Cc1c(-c2ccccc2)ccnc1Oc1ccccc1`, the AC50 under setting [1] is 7.94 µM [rising, partial curve, poor fit].

For `COc1ccc(Cl)cc1NC(=O)CSc1nc2sccc2c(=O)[nH]1`, the AC50 under setting [1] was 35.5 µM [falling, single point].

In the case of `O=c1c([N+](=O)[O-])c(NC2CCCCC2)c2ccccc2n1-c1ccccc1`, under setting [1], the AC50 is 6.51 µM [rising, partial curve].

`CCOC(=O)c1cc(-c2ccccc2)sc1NC(=O)c1cc(OC)c(OC)c(OC)c1`: under setting [1], the AC50 is 25.9 µM [rising, single point].

On to `O=C(/C=C/c1ccco1)Nc1cc(Cl)ccc1C(=O)O`, for which the AC50 under setting [1] was 5.17 µM [falling, partial curve].

Take `CSc1nc2ccc(S(=O)(=O)N3CCOCC3)cc2s1`: the AC50 under setting [1] was 6.51 µM [rising, single point].

With `Cc1cc(=O)n2c(C(=O)Nc3ccc(C)c(C)c3)c(C(=O)Nc3ccccc3)sc2n1`, the AC50 under setting [1] is 7.94 µM [falling, partial curve].

On to `CCc1ccc(NC(=O)c2ccc(Cn3cc([N+](=O)[O-])cn3)cc2)cc1`, for which the AC50 under setting [1] is 29.1 µM [rising, single point].

Consider `COc1cccc(NC(=S)NNC(=O)c2ccccc2OC(F)F)c1`, for which the AC50 under setting [1] is 17.8 µM [falling, partial curve, poor fit].

`c1cc(Nc2ncnc3sccc23)cc(-c2nnc3n2CCCCC3)c1`: under setting [1], the AC50 was 3.16 µM [falling, single point].

For `Fc1ccc(CCN2CCN=C2Nc2ccccc2)cc1`, the AC50 under setting [1] is 6.51 µM [rising, single point].

`CCCCCCCCC#Cc1nc(C)ccc1OC`: the AC50 under setting [1] was 29.1 µM [rising, partial curve, poor fit].

As for `c1ccc(CCNc2ccccc2)cc1`, under setting [1], the AC50 was 2.82 µM [rising, full curve].

`CCOc1ccc(NS(=O)(=O)c2ccc3[nH]c(=O)oc3c2)cc1`: the AC50 under setting [1] is 6.51 µM [falling, full curve].

For the compound `COc1ccc2nc(NC(=O)c3ccc(F)cc3)sc2c1`, the AC50 under setting [1] is 3.98 µM [falling, full curve, poor fit].

For `COc1cc(OC)nc(-n2ncc(OC)c(Br)c2=O)n1`, the AC50 under setting [1] was 32.6 µM [rising, partial curve, poor fit].

Turning to `COc1ccc(NC(=O)c2cc3ccccc3cc2O)cc1`, under setting [1], the AC50 was 10 µM [falling, partial curve].

`CC(Oc1ccc(Br)cc1Br)C(=O)Nc1cccnc1Cl` (configuration not stated): the AC50 under setting [1] is 1.58 µM [rising, full curve, poor fit].

With `COc1ccc(NC(=O)/C(C#N)=C/c2c(C)nn(-c3ccc(F)cc3)c2Cl)cc1OC`, the AC50 under setting [2] is 23.1 µM [falling, single point].

On to `N/C(=N\OC(=O)CCC1CCCC1)c1cccc([N+](=O)[O-])c1`, for which the AC50 under setting [1] is 7.31 µM [rising, partial curve].

Turning to `Cc1ccc(-n2c(=O)[nH]c3c(oc4ccccc43)c2=O)cc1`, the AC50 under setting [1] is 1.26 µM [rising, partial curve, poor fit].

For the compound `COc1cc(C(=O)O/N=C(\N)c2ccc([N+](=O)[O-])cc2)cc(OC)c1OC`, the AC50 under setting [1] is 4.11 µM [rising, full curve] and the AC50 under setting [2] is 4.11 µM [falling, partial curve, poor fit].

With `O=C(O)c1cc2ccc3ccccc3c2[nH]1`, under setting [1], the AC50 was 5.17 µM [rising, partial curve, poor fit].

Regarding `O=C1OC(c2ccc(O)cc2)(c2ccc(O)cc2)c2ccccc21`, the AC50 under setting [1] was 14.1 µM [falling, single point].

`c1ccc(OCCN2CCN(Cc3nc(-c4ccc5c(c4)OCO5)no3)CC2)cc1`: under setting [1], the AC50 is 11.2 µM [rising, single point].

For the compound `COc1ccc(CNC(=O)c2c(N)n(CCCN3CCOCC3)c3nc4ccccc4nc23)cc1`, under setting [1], the AC50 was 32.6 µM [falling, single point].

With `COC(=O)c1cnc(Nc2cccc(C(F)(F)F)c2)c([N+](=O)[O-])c1`, the AC50 under setting [1] was 2.51 µM [rising, partial curve, poor fit].

As to `CCOC(=O)Cc1csc(NC(=O)Cc2ccccc2)n1`, the AC50 under setting [1] is 14.1 µM [rising, single point].

Regarding `Cc1ccc(-c2cc(C(=O)NCC3CCCO3)no2)cc1` (configuration not stated), under setting [1], the AC50 is 5.8 µM [falling, partial curve].

In the case of `CCOC(=O)c1c(C)[nH]c(C)c1S(=O)(=O)NCCN1CCN(c2cc(Cl)ccc2C)CC1`, the AC50 under setting [1] was 35.5 µM [falling, single point].

Consider `COc1ccc(NC(=O)CN2CCN(S(=O)(=O)N(C)C)CC2)cc1`, for which the AC50 under setting [1] was 35.5 µM [rising, single point].

Source of the values: PubChem BioAssay AID493014 (National Center for Advancing Translational Sciences (NCATS), 2011).
